Measurements published in publication PMC4881172.
These are yes or no findings as the source states them, for the method shown. In cells and extracts the contact can be indirect. Some entries that bind do so weakly or less than the wild type.

Sequences of proteins named here, by UniProt entry; tags and fusion partners are left off.
UniProt P49950: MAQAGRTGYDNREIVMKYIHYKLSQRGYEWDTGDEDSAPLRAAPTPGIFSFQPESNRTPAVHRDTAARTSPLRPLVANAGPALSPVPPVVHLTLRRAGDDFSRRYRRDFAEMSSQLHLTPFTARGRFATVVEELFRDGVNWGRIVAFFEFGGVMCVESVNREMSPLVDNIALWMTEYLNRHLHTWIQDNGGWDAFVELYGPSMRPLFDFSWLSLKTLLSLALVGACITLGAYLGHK
UniProt P10415: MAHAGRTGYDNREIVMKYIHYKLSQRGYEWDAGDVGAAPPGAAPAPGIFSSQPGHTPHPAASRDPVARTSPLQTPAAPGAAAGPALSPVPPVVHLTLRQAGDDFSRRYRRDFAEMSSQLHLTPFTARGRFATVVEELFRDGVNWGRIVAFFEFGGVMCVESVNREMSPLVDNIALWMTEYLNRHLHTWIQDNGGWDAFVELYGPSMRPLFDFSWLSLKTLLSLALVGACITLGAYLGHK
UniProt Q91XJ1: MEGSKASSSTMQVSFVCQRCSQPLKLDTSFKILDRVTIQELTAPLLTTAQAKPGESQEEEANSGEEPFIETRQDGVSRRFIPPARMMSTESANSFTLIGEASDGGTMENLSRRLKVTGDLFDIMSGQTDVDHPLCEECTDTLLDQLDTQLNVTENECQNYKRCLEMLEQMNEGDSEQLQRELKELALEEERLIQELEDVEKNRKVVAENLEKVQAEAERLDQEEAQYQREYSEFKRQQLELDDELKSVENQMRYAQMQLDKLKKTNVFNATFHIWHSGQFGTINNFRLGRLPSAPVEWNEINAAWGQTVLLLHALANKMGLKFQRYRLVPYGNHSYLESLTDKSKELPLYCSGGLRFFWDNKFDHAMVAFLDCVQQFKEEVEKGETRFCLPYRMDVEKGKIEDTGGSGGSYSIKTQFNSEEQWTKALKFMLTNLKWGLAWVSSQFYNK
UniProt Q14457: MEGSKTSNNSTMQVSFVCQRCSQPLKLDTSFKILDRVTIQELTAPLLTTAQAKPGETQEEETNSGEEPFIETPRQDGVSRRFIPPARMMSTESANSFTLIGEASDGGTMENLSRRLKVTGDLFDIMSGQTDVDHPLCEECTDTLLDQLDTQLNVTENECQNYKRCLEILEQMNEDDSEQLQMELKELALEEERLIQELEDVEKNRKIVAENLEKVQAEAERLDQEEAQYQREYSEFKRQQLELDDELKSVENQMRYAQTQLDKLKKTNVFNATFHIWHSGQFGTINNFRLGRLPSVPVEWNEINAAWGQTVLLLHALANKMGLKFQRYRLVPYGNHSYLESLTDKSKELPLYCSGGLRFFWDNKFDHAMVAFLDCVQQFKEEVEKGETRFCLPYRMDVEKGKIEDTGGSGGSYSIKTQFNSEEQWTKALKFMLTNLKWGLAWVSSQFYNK

Key:
[1] = biological target: Bcl-2 (rat (endogenous in H9c2)) (UniProt P49950); assay: co-IP; whole-cell lysates of H9c2 cells starved 0-240 min with or without 100 uM ginsenoside Rg1; 10 ug antibody with 1 ml lysate at 4 °C overnight, Protein A/G-agarose 4 h, Western blot (methods: IP anti-Beclin1, blot anti-Bcl-2; legend of Fig. 5: IP anti-Bcl-2, blot anti-Beclin1)
[2] = biological target: Yellow fluorescent protein (YFP)-Bcl-2 (UniProt P10415); assay: FRET or BRET; live H9c2 cells stably co-expressing CFP-BECN1 and YFP-Bcl-2, glucose-free Tyrode's solution at 37 °C with or without 25, 50 or 100 uM ginsenoside Rg1; microplate reader every 10 min, excitation 436 nm, emission 527 nm

binding [1]	binding [2]	Substance
binds		Beclin1 (from UniProt Q91XJ1 1-448)
	binds	Cyan fluorescent protein (CFP)-BECN1 (from UniProt Q14457 1-450)
